According to patent US20250177530A1, “MOLECULES THAT BIND TO ENPP1 POLYPEPTIDES” (UNIVERSITY OF PITTSBURGH - OF THE COMMONWEALTH SYSTEM OF …, priority 2022, published 2025):
Substitutions are numbered along the chain they refer to. No constants are given. Whether binding was seen depends on the method and setting. Some results given as binding are weak or reduced against the parent protein; the word gives no strength. Values belong to the binder of their own block, whether it stands above or below them.

Protein sequences, listed by entry. Tags and fused reporters are not part of them. Lines headed by an entry give the natural chain unless they say otherwise; changes in a name come on top.
UniProt P22413: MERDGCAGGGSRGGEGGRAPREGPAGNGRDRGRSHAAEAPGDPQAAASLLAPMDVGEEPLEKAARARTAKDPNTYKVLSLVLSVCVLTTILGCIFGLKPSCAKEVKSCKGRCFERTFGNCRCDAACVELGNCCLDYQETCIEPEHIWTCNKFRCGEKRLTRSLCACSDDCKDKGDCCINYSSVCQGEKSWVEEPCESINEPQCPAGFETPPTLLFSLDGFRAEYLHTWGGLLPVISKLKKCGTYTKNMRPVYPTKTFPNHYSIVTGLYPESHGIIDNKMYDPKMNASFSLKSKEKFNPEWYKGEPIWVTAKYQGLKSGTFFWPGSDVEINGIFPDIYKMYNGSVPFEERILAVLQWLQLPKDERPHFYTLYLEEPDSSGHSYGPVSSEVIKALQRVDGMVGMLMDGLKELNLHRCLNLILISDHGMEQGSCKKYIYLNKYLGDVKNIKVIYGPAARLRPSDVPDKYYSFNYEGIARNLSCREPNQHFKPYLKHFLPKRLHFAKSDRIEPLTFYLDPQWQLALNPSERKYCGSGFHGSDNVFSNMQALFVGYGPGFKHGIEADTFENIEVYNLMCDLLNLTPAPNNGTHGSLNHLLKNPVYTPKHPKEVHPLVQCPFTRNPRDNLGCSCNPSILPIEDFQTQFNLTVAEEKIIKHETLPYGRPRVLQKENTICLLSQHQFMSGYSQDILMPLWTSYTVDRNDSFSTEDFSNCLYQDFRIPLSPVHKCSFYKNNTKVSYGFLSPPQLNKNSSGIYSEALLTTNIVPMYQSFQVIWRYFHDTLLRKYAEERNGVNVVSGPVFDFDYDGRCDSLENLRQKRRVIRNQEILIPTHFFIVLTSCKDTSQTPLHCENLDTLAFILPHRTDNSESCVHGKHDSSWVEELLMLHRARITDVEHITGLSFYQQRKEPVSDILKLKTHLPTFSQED

What was measured:
[1] = molecular target: human ENPP1 on the cell surface (293T-ENPP1 cells, HepG2 cells) (human) (UniProt P22413); assay: flow cytometry on 293T-ENPP1 and HepG2 cells, APC anti-FLAG
[2] = molecular target: human ENPP1 on the cell surface (293T-ENPP1 cells, HepG2 cells) (human) (UniProt P22413); assay: flow cytometry, 100 nM antibody, PE goat anti-human IgG second step, 293T-ENPP1 and HepG2 cells
[3] = molecular target: human ENPP1 on the cell surface (293T-ENPP1 cells, HepG2 cells) (human) (UniProt P22413); assay: flow cytometry on 293T-ENPP1 cells, 100 nM IgG1, PE anti-human IgG

B3: IgG1 17 (antibody, V domains shown)
VH: QVQLVESGGGLVKPGGSLRLSCAASGFTFSDYYMSWIRQAPGKGLEWVSYISSSGSTIYYADSVKGRFTISRDNAKNSLYLQMNSLRAEDTAVYYCAREVYYYDSSGYYTYYFDYWGQGTLVTVSS
VL: DIQMTQSPSSLSASVGDRVTITCRASQSISSYLNWYQQKPGKAPKLLIYAASSLQSGVPSRFSGSGSGTDFTLTISSLQPEDAATYYCQQYDTFPLTFGGGTKVEIKR
binding [2]: binds
binding [3]: binds

B4: IgG1 3G12 (antibody, V domains shown)
VH: B3 VH
VL: B3 VL with A83V, T85V, D92Y, F94S, P95R, L96I, G100Q, V104L
binding [2]: binds
binding [3]: binds

The next lines start with the values.

binding [1]: binds
B1: scFv 17 (scFv, not shown: small tags and cut ends)
scFv: DIQMTQSPSSLSASVGDRVTITCRASQSISSYLNWYQQKPGKAPKLLIYAASSLQSGVPSRFSGSGSGTDFTLTISSLQPEDAATYYCQQYDTFPLTFGGGTKVEIKGGGGSGGGGSGGGGSQVQLVESGGGLVKPGGSLRLSCAASGFTFSDYYMSWIRQAPGKGLEWVSYISSSGSTIYYADSVKGRFTISRDNAKNSLYLQMNSLRAEDTAVYYCAREVYYYDSSGYYTYYFDYWGQGTLVTVSS

binding [1]: binds
B2: scFv 3G12 (scFv, not shown: small tags and cut ends)
scFv: B1 scFv with A83V, T85V, D92Y, F94S, P95R, L96I, G100Q, V104L
